Among the data in publication PMC3051880 are binding values, retold here.

Sequences of proteins named here, by UniProt entry; tags and fusion partners are left off.
UniProt P38532: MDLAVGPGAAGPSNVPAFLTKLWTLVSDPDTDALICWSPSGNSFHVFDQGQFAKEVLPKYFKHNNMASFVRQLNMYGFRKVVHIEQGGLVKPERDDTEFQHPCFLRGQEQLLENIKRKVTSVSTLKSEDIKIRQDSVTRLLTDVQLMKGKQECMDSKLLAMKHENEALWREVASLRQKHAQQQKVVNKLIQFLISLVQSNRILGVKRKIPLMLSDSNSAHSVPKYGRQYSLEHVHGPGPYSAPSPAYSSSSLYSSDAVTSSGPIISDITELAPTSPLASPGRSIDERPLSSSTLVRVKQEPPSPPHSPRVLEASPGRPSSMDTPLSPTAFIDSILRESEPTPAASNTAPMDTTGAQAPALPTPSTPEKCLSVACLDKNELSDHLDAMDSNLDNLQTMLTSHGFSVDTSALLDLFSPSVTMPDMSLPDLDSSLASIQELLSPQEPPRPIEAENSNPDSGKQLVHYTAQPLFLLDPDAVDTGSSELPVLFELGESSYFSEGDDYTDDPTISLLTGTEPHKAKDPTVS
UniProt P11103: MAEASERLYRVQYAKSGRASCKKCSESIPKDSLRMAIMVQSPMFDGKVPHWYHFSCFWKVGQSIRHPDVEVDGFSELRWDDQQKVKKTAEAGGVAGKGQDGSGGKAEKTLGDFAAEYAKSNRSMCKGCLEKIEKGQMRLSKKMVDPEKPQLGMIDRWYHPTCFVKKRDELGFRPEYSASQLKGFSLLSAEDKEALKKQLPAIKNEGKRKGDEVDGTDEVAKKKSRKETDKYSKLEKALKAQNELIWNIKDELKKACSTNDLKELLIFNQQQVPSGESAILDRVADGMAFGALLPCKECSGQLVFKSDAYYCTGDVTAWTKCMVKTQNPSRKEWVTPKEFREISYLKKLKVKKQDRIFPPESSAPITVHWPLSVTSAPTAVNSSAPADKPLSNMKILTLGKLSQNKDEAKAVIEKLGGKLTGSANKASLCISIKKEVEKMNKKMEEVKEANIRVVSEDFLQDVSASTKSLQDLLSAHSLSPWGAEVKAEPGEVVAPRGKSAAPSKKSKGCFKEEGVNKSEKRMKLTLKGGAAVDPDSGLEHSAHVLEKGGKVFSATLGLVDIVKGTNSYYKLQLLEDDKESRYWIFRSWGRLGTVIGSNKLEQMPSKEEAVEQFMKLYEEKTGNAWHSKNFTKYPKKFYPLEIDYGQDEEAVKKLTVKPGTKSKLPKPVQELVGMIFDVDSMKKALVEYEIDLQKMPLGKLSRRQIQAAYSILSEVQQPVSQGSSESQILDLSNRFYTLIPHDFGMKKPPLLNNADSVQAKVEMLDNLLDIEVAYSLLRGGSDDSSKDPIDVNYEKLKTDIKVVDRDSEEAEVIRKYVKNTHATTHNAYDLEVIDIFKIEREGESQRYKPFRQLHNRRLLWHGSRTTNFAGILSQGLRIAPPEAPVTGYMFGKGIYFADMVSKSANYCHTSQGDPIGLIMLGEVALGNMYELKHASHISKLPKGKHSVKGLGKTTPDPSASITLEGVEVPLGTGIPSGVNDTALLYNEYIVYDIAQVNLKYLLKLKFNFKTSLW

In assay [1] the target is heat shock factor-1 (mouse (endogenous in mouse fibroblasts)) (UniProt P38532). As to the kind of experiment: co-IP; nuclear extracts of wild-type mouse fibroblasts, pre-cleared with normal mouse IgG-AC; immunoprecipitated with HSF-1 antibody (Stressgen SPA-950) or anti-PARP antibody (Biomol SA-250) and protein A/G PLUS-agarose overnight at 4°C, washed three times in PBS, blotted for the other protein; cells resting or heat shocked (43°C 45 min, recovery 37°C 45 min), with or without DIQ (100 μM).

Assay [2] deals with Poly (ADP-ribose) polymerase-1 (mouse (endogenous in mouse fibroblasts)) (UniProt P11103). The assay is described as above.

These are yes or no findings as the source states them, for the method shown. Binding seen in cells or lysates may run through a third protein. Some results given as binding are weak or reduced against the parent protein; the word gives no strength.

Take “Poly (ADP-ribose) polymerase-1 (from UniProt P11103 1-1013) (enzyme)”: in assay [1], the binding entry was “binds”.

In the case of “heat shock factor-1 (from UniProt P38532 1-525)”, the binding result in assay [2] was “binds”.
